Key:
Format in all cases: cell-based
[1] = test system: C. glabrata strains; experiment: Probe 1 uptake, responsive vs resistant strains, flow cytometry; conditions: for average level of fluorescence (probe uptake): 1 μM, 15 min
[2] = test system: C. albicans strains; experiment: as above; conditions: for average level of fluorescence (probe uptake): 1 μM, 15 min
[3] = test system: C. albicans SC5314 cells; experiment: Probe 1 localization and integrated density per cell with or without glucose, microscopy; conditions: for localization of probe: FIG. 5B
[4] = test system: four C. albicans and two C. glabrata strains; experiment: Cellular distribution of fluorescent probes, live cell fluorescence microscopy; conditions: FIG. 3A
[5] = test system: C. albicans and C. glabrata strains; experiment: Probe 1 localization and uptake in caspofungin-resistant vs parental/responsive strains
[6] = test system: C. albicans SC5314 cells; experiment: Probe 1 localization in PBS vs YPAD, microscopy; conditions: 1 μM

CC[C@H](C)C[C@H](C)CCCCCCCCC(=O)N[C@H]1C[C@@H](O)[C@@H](NCCN)NC(=O)[C@@H]2[C@@H](O)CCN2C(=O)[C@H]([C@H](O)CCN)NC(=O)[C@H]([C@H](O)[C@@H](O)c2ccc(OCc3cn(CCCNC(=O)c4ccc(-c5c6ccc(=[N+](C)C)cc-6oc6cc(N(C)C)ccc56)c(C(=O)[O-])c4)nn3)cc2)NC(=O)[C@@H]2C[C@@H](O)CN2C(=O)[C@H]([C@@H](C)O)NC1=O [Compound 1]
echinocandin-resistant strains tested resistant using the calculated cutoff lines ([1]; C. glabrata, probe uptake cutoff): 77% | average level of fluorescence (probe uptake) ([1]; caspofungin-resistant C. glabrata strains): 6.5±0.5 | average level of fluorescence (probe uptake) ([1]; caspofungin-responsive C. glabrata strains): 3.9±0.2 | echinocandin-resistant strains tested resistant using the calculated cutoff lines ([2]; C. albicans, probe uptake cutoff): 71% | average level of fluorescence (probe uptake) ([2]; caspofungin-resistant C. albicans strains): 10.8±1.4 | average level of fluorescence (probe uptake) ([2]; caspofungin-responsive C. albicans strains): 6.3±0.5 | localization of probe ([3]; in the absence of glucose): accumulated primarily at the cell envelope | localization of probe ([3]; in the presence of glucose): accumulated in the vacuole | Integrated density per cell ([3]; with 2% glucose (+)): (8.29 ± 2.56) × 10^6 RFU | Integrated density per cell ([3]; without glucose (−)): (7.99 ± 1.64) × 10^6 RFU | time to fluorescently labeled vesicular structures ([4]; after addition of probe (1 μM), time-lapse): ≤ 1 min | time to localization to the vacuole ([4]; probe 1 μM in PBS, co-localization with CellTracker Blue CMAC): ≤ 15 min | resistant strains with statistically significant increase in probe uptake relative to parental strains ([5]; 1 μM, flow cytometry, FIG. 8B): 80% | strains with uptake values above the cutoff lines confirmed as resistant ([5]; both species): 100% | subcellular localization in echinocandin-resistant progeny strains ([5]; four resistant strains, 1 μM, 60 min PBS, FIG. 8A): localized to the vacuole | localization of probe ([6]; PBS, 2 hours): remained concentrated at the vacuole | localization of probe ([6]; YPAD, after 2 h): entire cytoplasm was brightly stained

Source: patent US20230173018A1, “CASPOFUNGIN DERIVATIVES AND ASSAYS FOR EVALUATING ANTIFUNGAL TREATMENT EFFICACY” (priority 2020, published 2023)
